Values from PubChem BioAssay AID1259405 (NCATS, 2018)

- Aim: 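Knock-downs that lift recombinant protein yield in hamster ovary cells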 (primary screen)
- System: Chinese hamster CHO-K1 ovary cells with stable secreted eGFP expression
- Reagents: single siRNA against mouse genes, 0.8 pmol siRNA per well (2 µl of 400 nM stock)
- Duration: 3 days
- Read-out: 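Percent of the per-plate non-targeting control median for intracellular GFP per well by laser scanning cytometry and for cell viability by ATP luminescence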
- Reading the numbers: GFP, % of control: higher = more GFP per well, higher productivity; viability (ATP), % of control: higher = more viable cells (more ATP)
- Active means: 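Called active when intracellular GFP, relative to negative control, is at or above 120%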
The whole screen tested about 50,000 reagents; shown is a part drawn at random. In the full data, about 4,000 (8%) got an active call. 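Mouse siRNA library applied to hamster cells; one well for each siRNA.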 A number with no mark means an inactive call.

no.	gene	PubChem SID	GFP, % of control	viability (ATP), % of control
1	Brms1 (breast cancer metastasis-suppressor 1)	SID363547006	83.1	98.1
2	Brms1 (breast cancer metastasis-suppressor 1)	SID363549818	117	105
3	Brms1 (breast cancer metastasis-suppressor 1)	SID363587872	148 (active)	121
4	Mxra8 (matrix-remodelling associated 8)	SID363540837	108	114
5	Mxra8 (matrix-remodelling associated 8)	SID363543288	62.7	104
6	Mxra8 (matrix-remodelling associated 8)	SID363552781	56.5	58.8
7	Smarcb1 (SWI/SNF related BAF chromatin remodeling complex subunit B1)	SID363546129	52.1	72.6
8	Smarcb1 (SWI/SNF related BAF chromatin remodeling complex subunit B1)	SID363549642	64.1	87.4
9	Smarcb1 (SWI/SNF related BAF chromatin remodeling complex subunit B1)	SID363563448	62.9	60.8
10	Gpr137 (G protein-coupled receptor 137)	SID363569267	123 (active)	78.6
11	Gpr137 (G protein-coupled receptor 137)	SID363583699	82.5	89.9
12	Arhgdib (Rho, GDP dissociation inhibitor beta)	SID363570519	117	94.8
13	Arhgdib (Rho, GDP dissociation inhibitor beta)	SID363579319	69.5	53.7
14	Arhgdib (Rho, GDP dissociation inhibitor beta)	SID363583191	141 (active)	116
15	Map4k5 (mitogen-activated protein kinase kinase kinase kinase 5)	SID363570913	56.3	80.8
16	Scai (suppressor of cancer cell invasion)	SID363542881	71	69.6
17	Scai (suppressor of cancer cell invasion)	SID363546398	22.8	24.5
18	Scai (suppressor of cancer cell invasion)	SID363548154	68.2	116
19	Epn2 (epsin 2)	SID363553566	79.8	59.2
20	Epn2 (epsin 2)	SID363561523	65	38.5
21	Epn2 (epsin 2)	SID363565261	110	63.7
22	Egflam (EGF-like, fibronectin type III and laminin G domains)	SID363546820	41.6	52.6
23	Egflam (EGF-like, fibronectin type III and laminin G domains)	SID363548576	58.5	81.8
24	Egflam (EGF-like, fibronectin type III and laminin G domains)	SID363560754	28.6	48.6
25	Rab3ip (RAB3A interacting protein)	SID363545427	90.8	62.6
26	Rab3ip (RAB3A interacting protein)	SID363548940	94.3	78.8
27	Rab3ip (RAB3A interacting protein)	SID363562746	67.1	44.1
28	Hcfc2 (host cell factor C2)	SID363545878	99.5	96.3
29	Hcfc2 (host cell factor C2)	SID363549391	59.5	78.2
30	Hcfc2 (host cell factor C2)	SID363563197	64.6	59.7
31	Eefsec (eukaryotic elongation factor, selenocysteine-tRNA-specific)	SID363569604	93.9	91.6
32	Eefsec (eukaryotic elongation factor, selenocysteine-tRNA-specific)	SID363577348	73.9	72
33	Eefsec (eukaryotic elongation factor, selenocysteine-tRNA-specific)	SID363578756	49.8	70.2
34	Tyw1 (tRNA-yW synthesizing protein 1 homolog (S. cerevisiae))	SID363547667	57.8	39
35	Tyw1 (tRNA-yW synthesizing protein 1 homolog (S. cerevisiae))	SID363558436	140 (active)	81.2
36	Tyw1 (tRNA-yW synthesizing protein 1 homolog (S. cerevisiae))	SID363560194	86.3	77

Entries above whose target name begins with S or s:
gene	PubChem SID	GFP, % of control	viability (ATP), % of control
Smarcb1 (SWI/SNF related BAF chromatin remodeling complex subunit B1)	SID363546129	52.1	72.6
Smarcb1 (SWI/SNF related BAF chromatin remodeling complex subunit B1)	SID363549642	64.1	87.4
Smarcb1 (SWI/SNF related BAF chromatin remodeling complex subunit B1)	SID363563448	62.9	60.8
Scai (suppressor of cancer cell invasion)	SID363542881	71	69.6
Scai (suppressor of cancer cell invasion)	SID363546398	22.8	24.5
Scai (suppressor of cancer cell invasion)	SID363548154	68.2	116
